This note sets out measurements from patent US7176199B2, “Aryl-substituted alicyclic compound and medical composition comprising the same” (Dainippon Pharmaceutical Co., Ltd., priority 2001, dated 2007).

By UniProt entry, the sequences of proteins in these tests, tags left out. Residues count along the entry.
UniProt P05106, 27-788: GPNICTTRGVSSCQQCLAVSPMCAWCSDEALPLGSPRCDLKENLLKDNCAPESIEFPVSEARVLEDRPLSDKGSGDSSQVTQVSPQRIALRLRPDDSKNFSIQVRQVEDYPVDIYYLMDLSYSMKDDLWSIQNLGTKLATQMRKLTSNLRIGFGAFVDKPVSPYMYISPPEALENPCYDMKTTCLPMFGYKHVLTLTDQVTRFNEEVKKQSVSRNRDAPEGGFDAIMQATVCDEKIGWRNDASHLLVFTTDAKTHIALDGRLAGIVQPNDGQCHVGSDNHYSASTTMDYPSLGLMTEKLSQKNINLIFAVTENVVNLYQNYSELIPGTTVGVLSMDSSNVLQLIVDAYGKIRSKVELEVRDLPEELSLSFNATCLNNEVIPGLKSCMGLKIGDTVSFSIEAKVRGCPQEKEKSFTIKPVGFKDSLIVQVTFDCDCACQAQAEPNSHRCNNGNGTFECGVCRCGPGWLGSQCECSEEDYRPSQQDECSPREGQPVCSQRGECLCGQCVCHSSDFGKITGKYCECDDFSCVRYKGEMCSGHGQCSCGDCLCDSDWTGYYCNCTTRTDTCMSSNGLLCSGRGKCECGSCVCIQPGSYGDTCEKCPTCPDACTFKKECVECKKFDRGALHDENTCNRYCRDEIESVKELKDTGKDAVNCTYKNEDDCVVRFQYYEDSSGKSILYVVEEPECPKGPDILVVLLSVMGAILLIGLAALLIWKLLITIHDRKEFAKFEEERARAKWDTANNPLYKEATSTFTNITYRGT
UniProt P06756, 891-1048 partner limits assumed: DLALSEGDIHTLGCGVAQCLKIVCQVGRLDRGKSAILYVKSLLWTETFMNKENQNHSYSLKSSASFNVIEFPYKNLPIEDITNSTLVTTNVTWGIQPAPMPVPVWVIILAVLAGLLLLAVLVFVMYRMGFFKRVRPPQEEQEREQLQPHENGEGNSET
UniProt P06756, 31-889 limits assumed: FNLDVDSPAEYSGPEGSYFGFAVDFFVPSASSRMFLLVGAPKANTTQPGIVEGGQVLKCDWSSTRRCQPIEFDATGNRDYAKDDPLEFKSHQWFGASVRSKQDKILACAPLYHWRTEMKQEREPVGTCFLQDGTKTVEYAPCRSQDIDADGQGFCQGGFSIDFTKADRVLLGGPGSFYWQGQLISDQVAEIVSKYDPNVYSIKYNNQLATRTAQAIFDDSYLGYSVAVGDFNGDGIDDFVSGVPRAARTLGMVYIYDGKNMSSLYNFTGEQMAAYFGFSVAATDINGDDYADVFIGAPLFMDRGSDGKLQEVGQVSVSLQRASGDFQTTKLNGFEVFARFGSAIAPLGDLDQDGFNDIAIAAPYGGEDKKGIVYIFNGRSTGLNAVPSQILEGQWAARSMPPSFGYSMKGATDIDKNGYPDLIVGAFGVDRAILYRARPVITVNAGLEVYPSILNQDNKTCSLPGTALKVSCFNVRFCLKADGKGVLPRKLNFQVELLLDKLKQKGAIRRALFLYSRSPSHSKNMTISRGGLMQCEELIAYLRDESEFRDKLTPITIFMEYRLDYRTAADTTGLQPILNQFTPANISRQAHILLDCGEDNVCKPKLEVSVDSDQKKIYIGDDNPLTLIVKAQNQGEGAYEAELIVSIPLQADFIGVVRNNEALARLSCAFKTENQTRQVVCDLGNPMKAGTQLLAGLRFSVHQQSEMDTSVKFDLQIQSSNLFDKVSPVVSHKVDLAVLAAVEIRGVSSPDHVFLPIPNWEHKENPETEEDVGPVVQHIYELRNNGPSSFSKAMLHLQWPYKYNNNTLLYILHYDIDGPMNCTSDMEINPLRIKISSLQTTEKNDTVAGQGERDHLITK

The target of this assay is αvβ3 integrin (Homo sapiens, UniProt P05106+P06756). Briefly: Assay for the inhibition of αvβ3 integrin binding (vitronectin as ligand). On the set-up: purchased Chemicon International, Inc., USA. As to conditions: IC50 (nM) αvβ3 integrin binding, inhibition of specific binding of biotinylated human vitronectin to immobilized αvβ3 integrin. How it is done: Experiment 1: Assay for the Inhibition of αvβ3 integrin binding
This experiment was carried out based on the method described in […].
Purified human αvβ3 integrin (Chemicon International, Inc., USA) was adjusted to a concentration of 1 μg/ml with TBS^++ [20 mM Tris-HCl (pH 7.4), 150 mM NaCl, 1 mM CaCl2, 1 mM MgCl2], and the diluted solution was added to plates (Labsystems, Finland) at 50 μl/well. The plate was left at 4° C. overnight for immobilization of the αvβ3 integrin. All subsequent steps were done at 25° C., and the procedure for each well was described hereafter.
The solution was discarded, and then 200 μl of TBS^++ containing 1% BSA (Wako Pure Chemical Industries, Ltd., Japan) was added to the well and left for one hour for blocking. The well was washed with a wash solution (TBS^++ containing 0.01% Tween 20) 4 times, and 50 μl of a reaction solution (TBS^++ containing 0.1% BSA and 0.01% Tween 20) was added to the well. […]
The absorbance at 450 nm was measured with a plate reader (Molecular Devices, USA) to obtain a total binding. […] A specific binding was calculated by subtracting the nonspecific binding from the total binding.

What is called IC50 is the concentration at which inhibition is half-maximal. A high value points to weaker potency. `C[C@H](NC(=O)[C@@H]1CSSC(C)(C)[C@H](NC(=O)CN)C(=O)NCC(=O)N[C@@H](CCCNC(=N)N)C(=O)NCC(=O)N[C@@H](CC(=O)O)C(=O)N[C@@H](CO)C(=O)N2CCC[C@H]2C(=O)N1)C(=O)O` [RGD peptide, reference compound]: the IC50 was found to be 3 nM.
